Test results reported in article PMC7032926.
These are yes or no findings as the source states them, for the method shown. Binding seen in cells or lysates may run through a third protein. Some entries that bind do so weakly or less than the wild type.

Sequences of proteins named here, by UniProt entry; tags and fusion partners are left off.
UniProt P22366: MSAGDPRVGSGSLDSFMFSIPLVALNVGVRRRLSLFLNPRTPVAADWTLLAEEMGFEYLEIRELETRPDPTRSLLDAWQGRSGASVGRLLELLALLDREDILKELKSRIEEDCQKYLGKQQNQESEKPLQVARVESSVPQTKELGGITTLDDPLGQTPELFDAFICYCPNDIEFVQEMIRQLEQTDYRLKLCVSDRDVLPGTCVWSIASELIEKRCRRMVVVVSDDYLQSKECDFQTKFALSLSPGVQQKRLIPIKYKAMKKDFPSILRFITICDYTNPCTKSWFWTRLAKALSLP

Molecular target: MyD88 (mouse, endogenous in bone marrow derived macrophages) (mouse (endogenous in BMDM)) (UniProt P22366)
Assay: co-IP; endogenous proteins in lysates of primary murine BMDM (wildtype C57BL/6; for IRAK4 also Tlr5-deficient) after 100 ng/mL ultrapure LPS for indicated times; lysis in 0.5% TritonX-100, 20 mM HEPES pH 7.4, 150 mM NaCl, 1.5 mM MgCl2, 2 mM EGTA; protein G-Sepharose; immunoblot

B1: IRAK-4 (mouse, endogenous in bone marrow derived macrophages) (enzyme, UniProt Q8R4K2 1-459)
chain: MNKPLTPSTYIRNLNVGILRKLSDFIDPQEGWKKLAVAIKKPSGDDRYNQFHIRRFEALLQTGKSPTCELLFDWGTTNCTVGDLVDLLVQIELFAPATLLLPDAVPQTVKSLPPREAATVAQTHGPCQEKDRTSVMPMPKLEHSCEPPDSSSPDNRSVESSDTRFHSFSFHELKSITNNFDEQPASAGGNRMGEGGFGVVYKGCVNNTIVAVKKLGAMVEISTEELKQQFDQEIKVMATCQHENLVELLGFSSDSDNLCLVYAYMPNGSLLDRLSCLDGTPPLSWHTRCKVAQGTANGIRFLHENHHIHRDIKSANILLDKDFTAKISDFGLARASARLAQTVMTSRIVGTTAYMAPEALRGEITPKSDIYSFGVVLLELITGLAAVDENREPQLLLDIKEEIEDEEKTIEDYTDEKMSDADPASVEAMYSAASQCLHEKKNRRPDIAKVQQLLQEMSA
- binding: binds

B2: TLR6 (mouse, endogenous in bone marrow derived macrophages) (receptor, UniProt Q9EPW9 28-795)
chain: FSNELESMVDYSNRNLTHVPKDLPPRTKALSLSQNSISELRMPDISFLSELRVLRLSHNRIRSLDFHVFLFNQDLEYLDVSHNRLQNISCCPMASLRHLDLSFNDFDVLPVCKEFGNLTKLTFLGLSAAKFRQLDLLPVAHLHLSCILLDLVSYHIKGGETESLQIPNTTVLHLVFHPNSLFSVQVNMSVNALGHLQLSNIKLNDENCQRLMTFLSELTRGPTLLNVTLQHIETTWKCSVKLFQFFWPRPVEYLNIYNLTITERIDREEFTYSETALKSLMIEHVKNQVFLFSKEALYSVFAEMNIKMLSISDTPFIHMVCPPSPSSFTFLNFTQNVFTDSVFQGCSTLKRLQTLILQRNGLKNFFKVALMTKNMSSLETLDVSLNSLNSHAYDRTCAWAESILVLNLSSNMLTGSVFRCLPPKVKVLDLHNNRIMSIPKDVTHLQALQELNVASNSLTDLPGCGAFSSLSVLVIDHNSVSHPSEDFFQSCQNIRSLTAGNNPFQCTCELRDFVKNIGWVAREVVEGWPDSYRCDYPESSKGTALRDFHMSPLSCDTVLLTVTIGATMLVLAVTGAFLCLYFDLPWYVRMLCQWTQTRHRARHIPLEELQRNLQFHAFVSYSEHDSAWVKNELLPNLEKDDIRVCLHERNFVPGKSIVENIINFIEKSYKAIFVLSPHFIQSEWCHYELYFAHHNLFHEGSDNLILILLEPILQNNIPSRYHKLRALMAQRTYLEWPTEKGKRGLFWANLRASFIMKLALVNEDDVKT
- binding: no binding
